Laboratory results taken from the supplement of paper PMC3334620.
Over roughly 33,000 sequences, “E-score (-0.5 to 0.5)” has its median near -0.0014; the highest 2% begin near 0.25. The list shows a part of the results.

target: T1, Cad1 (UniProt P24813); test: PBM E-score (8-mer binding enrichment) (E-score (-0.5 to 0.5)); higher = stronger / more preferred TF binding; details: protein concentration: 100 nM; construct: GST-full length
T1 sequence: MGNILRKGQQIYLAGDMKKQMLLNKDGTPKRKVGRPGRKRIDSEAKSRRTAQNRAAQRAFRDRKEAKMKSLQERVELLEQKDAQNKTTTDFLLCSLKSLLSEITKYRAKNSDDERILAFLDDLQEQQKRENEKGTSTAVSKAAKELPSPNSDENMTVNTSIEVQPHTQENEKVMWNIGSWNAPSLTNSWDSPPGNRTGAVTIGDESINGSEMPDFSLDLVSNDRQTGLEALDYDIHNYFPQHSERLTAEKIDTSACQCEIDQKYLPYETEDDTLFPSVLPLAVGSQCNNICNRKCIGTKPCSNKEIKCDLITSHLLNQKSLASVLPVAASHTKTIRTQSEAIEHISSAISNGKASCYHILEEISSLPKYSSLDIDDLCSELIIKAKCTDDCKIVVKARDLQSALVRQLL
Summary of the method: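 The E-score, a modified Wilcoxon-Mann-Whitney statistic, was computed by the Universal PBM Analysis Suite for every ungapped eight-base word pooled with its reverse complement. Scans behind it were normalised with masliner after bound GST-tagged yeast transcription factors were detected with fluorescent anti-GST. The proteins, at about 100-200 nM, had been applied to universal all-10-mer Agilent arrays made double-stranded by primer extension.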

Sequence | PBM E-score
GAACTTGC | -0.0085
ACCCGGAG | 0.229
CGTGGGGC | -0.113
AAGCTAAT | 0.224
AGTTATCG | 0.225
CTGTGTAC | 0.079
ACCAACAT | 0.14
GCCGCCTA | -0.106
CCGTACTC | -0.0921
GGTCACCA | -0.342
CTATCGAG | 0.0129
CAGATCCA | 0.0809
CAGGTGAA | 0.0221
CCAGCGAA | -0.145
CCAAAACC | -0.0108
ACTGTCTG | -0.134
AAATAGTA | 0.181
GTCAACAA | 0.0597
AGCCAGCC | -0.165
ATGCACCC | -0.0452
ACATGGAC | -0.043
AGCCCACA | -0.13
GGGGTATA | -0.158
CGGCATTC | -0.018
GGACAAAA | 0.0884

Sequence | PBM E-score
CACTCGAC | 0.0744
CTGGGAAG | -0.0327
AAAGGGCC | -0.246
CAAATGTC | -0.055
TCATTTCA | -0.0423
CTGAGAAC | 0.0127
ATTGGCGC | -0.0169
CCAGGGCC | -0.14
GGAATGGA | -0.11
AGACCGAG | -0.173
GCGAATAA | 0.0329
AAGTCCAG | -0.0379
AAAAAGAG | -0.15
ACTTAAGC | 0.106
CGGGACGA | 0.0472
AATTCTAC | 0.138
ACGATAAG | 0.0346
ACGGGCTA | -0.21
GCTTGCAA | 0.172
TAATCTCA | 0.0993
ACATGGCG | -0.147
ATAGGTAG | 0.0553
AAGTTAAA | 0.2
CCGCGACG | 0.198
CTTCTGAA | 0.0469

Sequence | PBM E-score
AGCTGTCC | -0.0506
TACGAAAA | 0.0721
ACTAAAAC | 0.116
CCCCGACC | -0.206
CGGCAACA | 0.108
AATAATGC | 0.242
CGTCACCA | -0.0123
AAACCTGC | 0.0617
TACGCCTA | -0.0619
AGAGTTTG | 0.0139
GGGTGTCA | -0.0261
TAGAGCGA | -0.114
CGGATCTA | 0.0112
CTCTTACA | -0.0393
CGGAGCAA | -0.127
ACACGCCA | 0.0485
ACTCCCGC | -0.0846
ATGTAAAC | 0.211
GCCCGCAA | 0.129
AAAGGACT | -0.224
GTTCGCCA | -0.171
GAATAGGA | -0.038
ATCATCAT | 0.0935
AAACTAAG | 0.166
ACAGATAT | 0.0957

Sequence | PBM E-score
ACGTTTCG | -0.0535
CATCAAAA | -0.00359
ATGCTGAA | 0.0202
AAGCCATC | 0.0891
GAACACAA | -0.0302
ATCGCGCA | 0.0635
GTCATCAC | 0.111
AATATTAG | 0.213
GCCTCTCC | -0.304
TCCTTAGA | -0.0941
CACGTCCA | -0.149
AGACCTGA | 0.0374
ATTAGTTA | 0.362
CAGCCGAC | -0.0946
TAGGGAGA | -0.104
AGGCGTGC | -0.0381
ATTCAGTG | 0.0362
AGACTATC | -0.0211
ACAGTAGG | -0.158
AGCGCACG | 0.237
CGTCAGTA | -0.0374
AAAACGAG | 0.0463
AGGTTTAA | -0.0294
GAGGGAGC | -0.25
CCGGCGAG | 0.125

Sequence | PBM E-score
TGATATAA | -0.0984
ACTGCTTG | -0.214
ACTACAGA | 0.154
ATCCCCTG | -0.289
CCACTAGG | -0.253
AATACCGC | 0.0597
CTTCATAA | 0.163
CGACAACA | 0.117
ATTTTCCA | 0.209
GGTCGCAC | 0.051
GGGTCCTA | -0.202
ACTTCCAT | 0.141
CATTGACC | 0.0957
GAGCTACC | -0.011
GCTGTGCC | -0.0355
CCAATAAG | -0.101
ACGCCTTA | -0.172
GTATCCGA | 0.11
CCACGGAA | 0.235
GAAGTCGC | 0.022
TGCCCGAA | -0.0712
GAGAAGCC | -0.106
CGTGAACC | -0.0667
AGAGGATG | 0.00349
AACACAGG | -0.0364

Sequence | PBM E-score
GGTATCGA | 0.171
CTAATGCC | -0.0404
ACCTCACG | 0.0697
GCCTCTTA | 0.0813
GTAACAAA | 0.15
CACTGACC | -0.111
CTCTCAAC | -0.189
AGTTCGAA | 0.168
CTTCGGTA | -0.142
AGACAAAT | 0.125
CTTCGCTA | 0.0327
TCAGAGAA | -0.0244
CGATTACC | 0.064
AGGCTAAG | -0.113
ACCGTATC | -0.0258
CATATAAG | 0.00934
AGATTTGG | -0.13
CCGACTCG | -0.0729
TACATCAA | -0.00492
CACAACCA | 0.14
AATTCTGC | 0.142
GAGTGGGC | -0.294
AAGCGGCG | 0.0379
CCATCAAC | 0.0658
AACAGAGA | -0.0618

36 successive records out of the list so far:
Sequence | PBM E-score
CGTGGGGC | -0.113
AAGCTAAT | 0.224
AGTTATCG | 0.225
CTGTGTAC | 0.079
ACCAACAT | 0.14
GCCGCCTA | -0.106
CCGTACTC | -0.0921
GGTCACCA | -0.342
CTATCGAG | 0.0129
CAGATCCA | 0.0809
CAGGTGAA | 0.0221
CCAGCGAA | -0.145
CCAAAACC | -0.0108
ACTGTCTG | -0.134
AAATAGTA | 0.181
GTCAACAA | 0.0597
AGCCAGCC | -0.165
ATGCACCC | -0.0452
ACATGGAC | -0.043
AGCCCACA | -0.13
GGGGTATA | -0.158
CGGCATTC | -0.018
GGACAAAA | 0.0884
CACTCGAC | 0.0744
CTGGGAAG | -0.0327
AAAGGGCC | -0.246
CAAATGTC | -0.055
TCATTTCA | -0.0423
CTGAGAAC | 0.0127
ATTGGCGC | -0.0169
CCAGGGCC | -0.14
GGAATGGA | -0.11
AGACCGAG | -0.173
GCGAATAA | 0.0329
AAGTCCAG | -0.0379
AAAAAGAG | -0.15

(further entries)

Sequence | PBM E-score
ATGGGGCC | -0.384
CTATGTTC | 0.0922
CAATGAAG | -0.0666
AATAGTAT | 0.137
ACACTAGC | 0.0926
AACTTATT | 0.142
AACGGTTA | -0.0521
GCCAGCGA | -0.149
AGACCACT | -0.0474
AATAAGTC | 0.108
AAATACAA | 0.0875
CGGGGGTC | -0.297
AACTGTAG | 0.0438
AAGTATCC | 0.0184
CGGACACG | 0.0197
CGACGAGA | 0.0652
CCGGCTCG | 0.0853
CATGAAAA | 0.14
GGGAACCC | -0.0657
CACTTCGC | 0.00138
GCCTGTAC | 0.12
CATCTGCA | 0.047
